From the supplement of paper PMC3334620 come the findings set out here.

Whole data set: some 33,000 sequences, median “E-score (-0.5 to 0.5)” near -0.0059, cut for the highest 2% near 0.26. Some of the results follow.

This experiment has as its target T1, Cin5 (UniProt P40917).
T1 sequence: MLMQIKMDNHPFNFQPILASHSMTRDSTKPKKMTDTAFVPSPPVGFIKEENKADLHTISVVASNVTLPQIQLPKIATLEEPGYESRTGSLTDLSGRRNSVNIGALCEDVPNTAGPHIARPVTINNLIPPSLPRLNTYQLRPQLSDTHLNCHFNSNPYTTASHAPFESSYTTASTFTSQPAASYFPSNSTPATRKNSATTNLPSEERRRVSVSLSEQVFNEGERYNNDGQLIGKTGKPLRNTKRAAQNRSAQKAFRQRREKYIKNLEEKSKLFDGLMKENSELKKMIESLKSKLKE
As to the kind of experiment: PBM E-score (8-mer binding enrichment) (E-score (-0.5 to 0.5)); higher = stronger / more preferred TF binding. The conditions noted are these: protein concentration: 100 nM; construct: GST-full length. A digest of the protocol: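 Full-length yeast transcription factors or their DNA-binding domains, GST-tagged and expressed with PURExpress, were applied at about 100-200 nM to universal all-10-mer Agilent arrays. These arrays had been made double-stranded by primer extension on fresh or once-stripped slides. Detection used fluorescent anti-GST, normalisation used masliner, and E-scores for ungapped eight-base words pooled with reverse complements came from the Universal PBM Analysis Suite.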
As for CAAAGGAG, the “PBM E-score” value came to 0.0549.

Turning to ACGGTACA, the “PBM E-score” value was determined as 0.0466.

AATGGTCG: the “PBM E-score” value is -0.0729.

Consider AAGGGGGT, for which the “PBM E-score” value was -0.486.

For the sequence CAGTCCTC, the “PBM E-score” value is -0.211.

In the case of ATCCCGTC, the “PBM E-score” value stood at 0.0343.

For the sequence ATTGCATG, the “PBM E-score” value was found to be 0.166.

On to GCTTTGTA, for which the “PBM E-score” value worked out at 0.174.

For CCCTGCCC, the “PBM E-score” value was -0.219.

For the sequence CAAGCCGC, the “PBM E-score” value was -0.189.

As for AACGATCC, the “PBM E-score” value is -0.0525.

For the sequence AGTAAATG, the “PBM E-score” value was determined as 0.168.

Regarding ACTTTGAG, the “PBM E-score” value was -0.126.

As to GCAGACTA, the “PBM E-score” value was -0.196.

As for CATGTTCG, the “PBM E-score” value was -0.0998.

Consider TAACGTGA, for which the “PBM E-score” value was -0.0816.

With CCGAAAGC, the “PBM E-score” value was -0.328.

On to GGGATGGA, for which the “PBM E-score” value is -0.0407.

Consider CCGTTTCC, for which the “PBM E-score” value was 0.0386.

As to CGTCCCTC, the “PBM E-score” value was -0.187.

Turning to AAGTGGCT, the “PBM E-score” value turned out to be 0.0123.

As for CAAGGCCG, the “PBM E-score” value is -0.123.

As for AAGTAGTC, the “PBM E-score” value came out at 0.0452.

As for TCAGAGGA, the “PBM E-score” value was -0.154.

As for CGCTGCAG, the “PBM E-score” value is -0.109.

For the sequence AGCCACTC, the “PBM E-score” value is -0.0694.

With GGCATAGA, the “PBM E-score” value came out at 0.0143.

With GATGTTAC, the “PBM E-score” value stood at 0.0289.

As for CGAAAAAA, the “PBM E-score” value turned out to be 0.159.

In the case of ATCCCAGC, the “PBM E-score” value is -0.131.

With CTTACCTC, the “PBM E-score” value was -0.0461.

Consider ACGCTGCG, for which the “PBM E-score” value was -0.164.

For AAGGTGAA, the “PBM E-score” value was -0.0511.

In the case of AGTCAAGA, the “PBM E-score” value is 0.0158.

Turning to AACCGTAG, the “PBM E-score” value was -0.244.

Turning to ATTTGCTA, the “PBM E-score” value worked out at 0.166.

Take AAAATTTT: the “PBM E-score” value was 0.0314.

Take GTAGAAAC: the “PBM E-score” value worked out at 0.0147.

As to GGACTTAA, the “PBM E-score” value was -0.15.

Take CGAACCAA: the “PBM E-score” value amounted to 0.0772.

Take AAAGTTCG: the “PBM E-score” value amounted to 0.141.

AAAATCAC: the “PBM E-score” value worked out at 0.194.

As for CCCGCGAG, the “PBM E-score” value is 0.0785.

Consider CACACTGC, for which the “PBM E-score” value was -0.0218.

For the sequence CAGTTCCA, the “PBM E-score” value stood at 0.119.

For AGTCCTAT, the “PBM E-score” value was 0.00257.

As for CCTCAACA, the “PBM E-score” value was 0.0578.

In the case of TCCCAACA, the “PBM E-score” value was -0.0407.

Consider CGCTCAAG, for which the “PBM E-score” value is -0.124.

As for CGAAGCAA, the “PBM E-score” value is -0.0443.

Consider ACCCAGTC, for which the “PBM E-score” value was 0.00535.

Turning to CTTAAAGC, the “PBM E-score” value is -0.108.

In the case of CCACTGGA, the “PBM E-score” value is -0.116.

As for ATCCTGAG, the “PBM E-score” value is -0.0584.

As for ATGTGCCA, the “PBM E-score” value is -0.102.

Turning to CCTATCCC, the “PBM E-score” value is 0.133.

Turning to AATTACAG, the “PBM E-score” value amounted to 0.107.

With AGACGCCC, the “PBM E-score” value is 0.00127.

On to AAATTTTA, for which the “PBM E-score” value is -0.0545.

For the sequence GCGCCACA, the “PBM E-score” value was found to be 0.0939.

As for CCAAAATC, the “PBM E-score” value amounted to 0.11.

Take AACGTGAT: the “PBM E-score” value was -0.0506.

Consider CCGATTGA, for which the “PBM E-score” value amounted to 0.0661.

In the case of CCATGGCG, the “PBM E-score” value was determined as 4e-05.

For AAAATGCA, the “PBM E-score” value is -0.0683.

Regarding AACTCAGA, the “PBM E-score” value was found to be 0.0722.

In the case of CCTTTCCG, the “PBM E-score” value is -0.127.

Take CTTCACGC: the “PBM E-score” value was 0.0975.

Turning to CACAGTGC, the “PBM E-score” value is -0.0827.

ATCCACTA: the “PBM E-score” value came out at 0.134.

CTCCCGAA: the “PBM E-score” value is -0.143.

Consider GGGGAGAC, for which the “PBM E-score” value was -0.187.

AACGTATT: the “PBM E-score” value was determined as 0.103.

As to AGCAGTAT, the “PBM E-score” value amounted to 0.145.

For CAACATGA, the “PBM E-score” value is 0.232.

With CAGCTAAA, the “PBM E-score” value was -0.0291.

For GCCTTTCC, the “PBM E-score” value was -0.202.

With GCATATCA, the “PBM E-score” value came to 0.234.

Regarding AAACCAAT, the “PBM E-score” value came out at 0.188.

In the case of GCGTTAAA, the “PBM E-score” value was found to be 0.00644.

Regarding GGAAACCC, the “PBM E-score” value was determined as 0.101.

As for CACGACGA, the “PBM E-score” value is -0.168.

As for ATCCGTTC, the “PBM E-score” value was 0.0322.

On to AACGGTGA, for which the “PBM E-score” value is -0.126.

As to AATACAAT, the “PBM E-score” value amounted to 0.154.

Regarding CAAAACGA, the “PBM E-score” value came out at 0.0397.

CAAATTAA: the “PBM E-score” value worked out at 0.191.

ATGAGATC: the “PBM E-score” value was found to be 0.0882.

Take AAGTGGAG: the “PBM E-score” value is 0.0547.

For the sequence TAAACAGA, the “PBM E-score” value worked out at 0.0674.

Regarding ATCACCTA, the “PBM E-score” value came to 0.0946.

Regarding CTCAAGCA, the “PBM E-score” value was -0.0562.

For AATCATGC, the “PBM E-score” value stood at 0.052.

Take CATTCTGC: the “PBM E-score” value is 0.0745.

As to GAGGATCC, the “PBM E-score” value is -0.105.

In the case of GTCTCGTA, the “PBM E-score” value was -0.0497.

Consider ACACATGC, for which the “PBM E-score” value was -0.0902.

With GAATGACC, the “PBM E-score” value amounted to 0.00803.

As for ACGCCTAC, the “PBM E-score” value was -0.177.

On to AATAGTTA, for which the “PBM E-score” value came out at 0.105.

With CCTTCCGC, the “PBM E-score” value was -0.205.

CCTCCAAG: the “PBM E-score” value was -0.185.

With AATCGATA, the “PBM E-score” value was determined as 0.247.

Take AGGCACCA: the “PBM E-score” value was -0.0194.

As to ACCGTTAT, the “PBM E-score” value is -0.0275.

As for ACTCATCA, the “PBM E-score” value amounted to 0.0115.

With AGAGCCCG, the “PBM E-score” value is -0.148.

As for ATTAACAA, the “PBM E-score” value amounted to 0.274.

As to GAACACCA, the “PBM E-score” value is -0.138.
